Experimental data taken from doi:10.1101/2020.04.23.058487.
No constants are given. Whether binding was seen depends on the method and setting. Binding seen in cells or lysates may run through a third protein. Some entries that bind do so weakly or less than the wild type. For some of these results: Tags and fused reporters may be left off the sequences shown.

Chains of the proteins cited; added tags and fusions are not shown.
UniProt P05804: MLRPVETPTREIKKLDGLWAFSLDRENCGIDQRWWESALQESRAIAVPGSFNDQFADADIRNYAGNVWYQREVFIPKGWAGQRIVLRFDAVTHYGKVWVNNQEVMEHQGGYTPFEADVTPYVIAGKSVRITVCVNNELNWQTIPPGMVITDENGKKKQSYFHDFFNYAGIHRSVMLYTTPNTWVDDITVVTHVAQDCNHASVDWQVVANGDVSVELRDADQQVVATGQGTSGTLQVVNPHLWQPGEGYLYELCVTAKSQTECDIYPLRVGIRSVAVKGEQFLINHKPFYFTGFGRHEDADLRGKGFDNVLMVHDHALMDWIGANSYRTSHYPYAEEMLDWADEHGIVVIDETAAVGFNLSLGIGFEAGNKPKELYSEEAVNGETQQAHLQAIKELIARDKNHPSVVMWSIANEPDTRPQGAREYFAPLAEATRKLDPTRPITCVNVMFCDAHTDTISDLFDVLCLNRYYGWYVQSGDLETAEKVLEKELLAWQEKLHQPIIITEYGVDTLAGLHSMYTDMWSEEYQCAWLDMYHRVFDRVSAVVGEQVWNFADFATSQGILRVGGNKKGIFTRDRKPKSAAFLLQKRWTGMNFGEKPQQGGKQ

T1: nVenus-ITPK1 (Arabidopsis thaliana) (UniProt Q9SBA5)
T1 sequence: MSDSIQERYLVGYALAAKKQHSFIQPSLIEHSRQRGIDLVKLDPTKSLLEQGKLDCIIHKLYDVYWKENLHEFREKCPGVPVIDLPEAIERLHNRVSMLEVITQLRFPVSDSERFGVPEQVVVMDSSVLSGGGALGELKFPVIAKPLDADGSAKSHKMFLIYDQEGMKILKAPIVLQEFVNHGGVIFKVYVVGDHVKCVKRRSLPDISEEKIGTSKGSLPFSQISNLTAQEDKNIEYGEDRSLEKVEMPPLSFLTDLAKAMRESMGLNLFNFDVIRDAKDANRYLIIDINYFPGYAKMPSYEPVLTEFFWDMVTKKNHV

T2: nVenus-TIR1 (Arabidopsis thaliana) (UniProt Q570C0)
T2 sequence: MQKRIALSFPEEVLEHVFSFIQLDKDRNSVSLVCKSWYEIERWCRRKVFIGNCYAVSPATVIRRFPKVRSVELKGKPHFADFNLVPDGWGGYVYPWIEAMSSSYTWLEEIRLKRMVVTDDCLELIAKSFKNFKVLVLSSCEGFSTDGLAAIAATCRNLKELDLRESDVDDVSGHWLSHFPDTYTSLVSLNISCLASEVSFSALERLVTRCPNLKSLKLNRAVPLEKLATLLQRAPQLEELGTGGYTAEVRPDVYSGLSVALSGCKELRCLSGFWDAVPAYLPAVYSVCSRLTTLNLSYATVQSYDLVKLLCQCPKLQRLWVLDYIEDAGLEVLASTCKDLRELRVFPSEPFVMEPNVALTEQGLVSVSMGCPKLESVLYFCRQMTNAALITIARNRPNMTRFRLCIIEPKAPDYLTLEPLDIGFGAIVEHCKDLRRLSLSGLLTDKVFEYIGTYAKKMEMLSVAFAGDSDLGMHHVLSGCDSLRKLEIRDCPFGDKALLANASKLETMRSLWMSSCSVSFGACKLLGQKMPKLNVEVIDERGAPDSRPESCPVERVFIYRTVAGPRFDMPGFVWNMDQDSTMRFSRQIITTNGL

T3: cCFP-ITPK1 (Arabidopsis thaliana) (UniProt Q9SBA5)
T3 sequence: T1 sequence

T4: cCFP-TIR1 (Arabidopsis thaliana) (UniProt Q570C0)
T4 sequence: T2 sequence

T5: ITPK1-G3GFP (Arabidopsis thaliana) (UniProt Q9SBA5)
T5 sequence: T1 sequence

B1: TIR1 (TRANSPORT INHIBITOR RESPONSE1), endogenous (protein, UniProt Q570C0 1-594)
chain: T2 sequence
B2: cCFP-TIR1 (protein, UniProt Q570C0 1-594)
chain: T2 sequence
B3: nVenus-TIR1 (protein, UniProt Q570C0 1-594)
chain: T2 sequence

What was measured:
[1] = target: T1, nVenus-ITPK1 (Arabidopsis thaliana); experiment: split reporter
[2] = target: T2, nVenus-TIR1 (Arabidopsis thaliana); experiment: split reporter
[3] = target: T3, cCFP-ITPK1 (Arabidopsis thaliana); experiment: split reporter
[4] = target: T4, cCFP-TIR1 (Arabidopsis thaliana); experiment: split reporter
[5] = target: T5, ITPK1-G3GFP (Arabidopsis thaliana); experiment: co-IP

Molecule	binding [1]	binding [3]	further results
cCFP-tagged GUS (control) (from UniProt P05804 1-603) (enzyme)	no binding		binding [2]: no binding
nVenus-tagged GUS (control) (from UniProt P05804 1-603) (enzyme)		no binding	binding [4]: no binding
B1			binding [5]: binds
B2	binds		
B3		binds	
